Measurements as given in the supplement of paper PMC10849652.
Some of the results follow.

Sequences of proteins named here, by UniProt entry; tags and fusion partners are left off. A change or cut given only in a name is not applied to a line headed by its entry.
UniProt P17020: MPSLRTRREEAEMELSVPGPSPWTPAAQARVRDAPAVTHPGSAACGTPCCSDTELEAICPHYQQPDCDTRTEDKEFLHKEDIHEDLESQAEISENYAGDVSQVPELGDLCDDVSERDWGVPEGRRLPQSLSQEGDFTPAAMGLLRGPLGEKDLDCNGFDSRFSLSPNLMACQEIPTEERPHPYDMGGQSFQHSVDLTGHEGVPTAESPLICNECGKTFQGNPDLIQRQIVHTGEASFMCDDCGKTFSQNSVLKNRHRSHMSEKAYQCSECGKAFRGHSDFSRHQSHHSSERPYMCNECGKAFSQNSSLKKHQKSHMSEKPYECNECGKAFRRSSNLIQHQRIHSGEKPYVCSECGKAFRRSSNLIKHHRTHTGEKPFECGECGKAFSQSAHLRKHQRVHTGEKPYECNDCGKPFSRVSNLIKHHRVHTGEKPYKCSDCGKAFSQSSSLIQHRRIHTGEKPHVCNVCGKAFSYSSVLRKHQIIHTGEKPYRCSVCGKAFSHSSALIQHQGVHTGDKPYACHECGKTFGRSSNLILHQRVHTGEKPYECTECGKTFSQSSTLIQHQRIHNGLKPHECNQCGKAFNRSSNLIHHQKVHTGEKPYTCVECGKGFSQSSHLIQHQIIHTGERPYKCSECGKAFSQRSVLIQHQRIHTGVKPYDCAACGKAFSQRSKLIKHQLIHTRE
UniProt Q9Y2X9: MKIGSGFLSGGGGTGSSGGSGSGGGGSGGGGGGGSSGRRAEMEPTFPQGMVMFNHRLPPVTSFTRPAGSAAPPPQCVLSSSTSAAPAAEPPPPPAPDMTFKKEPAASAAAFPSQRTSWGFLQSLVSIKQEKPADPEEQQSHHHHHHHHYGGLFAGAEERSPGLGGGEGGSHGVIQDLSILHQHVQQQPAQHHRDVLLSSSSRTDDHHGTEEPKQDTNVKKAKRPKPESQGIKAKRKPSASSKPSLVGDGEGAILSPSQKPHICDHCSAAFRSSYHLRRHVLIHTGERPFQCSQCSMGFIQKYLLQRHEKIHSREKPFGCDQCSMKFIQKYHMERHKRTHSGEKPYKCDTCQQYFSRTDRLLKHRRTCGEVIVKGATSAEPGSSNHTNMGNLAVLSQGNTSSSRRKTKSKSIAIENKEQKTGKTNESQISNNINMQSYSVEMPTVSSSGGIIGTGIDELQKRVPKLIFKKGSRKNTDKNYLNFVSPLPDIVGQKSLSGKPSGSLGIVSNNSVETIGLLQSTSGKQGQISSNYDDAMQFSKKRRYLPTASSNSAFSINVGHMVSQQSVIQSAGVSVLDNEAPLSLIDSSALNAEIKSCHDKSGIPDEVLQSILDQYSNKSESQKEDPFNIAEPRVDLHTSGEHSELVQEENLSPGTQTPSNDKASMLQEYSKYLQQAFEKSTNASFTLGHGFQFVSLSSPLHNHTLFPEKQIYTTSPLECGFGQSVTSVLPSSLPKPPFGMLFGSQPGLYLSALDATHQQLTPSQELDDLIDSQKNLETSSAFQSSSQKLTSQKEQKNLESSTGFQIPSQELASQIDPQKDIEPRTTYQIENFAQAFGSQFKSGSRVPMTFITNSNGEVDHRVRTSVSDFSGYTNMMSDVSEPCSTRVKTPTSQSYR
UniProt Q9Y2D9: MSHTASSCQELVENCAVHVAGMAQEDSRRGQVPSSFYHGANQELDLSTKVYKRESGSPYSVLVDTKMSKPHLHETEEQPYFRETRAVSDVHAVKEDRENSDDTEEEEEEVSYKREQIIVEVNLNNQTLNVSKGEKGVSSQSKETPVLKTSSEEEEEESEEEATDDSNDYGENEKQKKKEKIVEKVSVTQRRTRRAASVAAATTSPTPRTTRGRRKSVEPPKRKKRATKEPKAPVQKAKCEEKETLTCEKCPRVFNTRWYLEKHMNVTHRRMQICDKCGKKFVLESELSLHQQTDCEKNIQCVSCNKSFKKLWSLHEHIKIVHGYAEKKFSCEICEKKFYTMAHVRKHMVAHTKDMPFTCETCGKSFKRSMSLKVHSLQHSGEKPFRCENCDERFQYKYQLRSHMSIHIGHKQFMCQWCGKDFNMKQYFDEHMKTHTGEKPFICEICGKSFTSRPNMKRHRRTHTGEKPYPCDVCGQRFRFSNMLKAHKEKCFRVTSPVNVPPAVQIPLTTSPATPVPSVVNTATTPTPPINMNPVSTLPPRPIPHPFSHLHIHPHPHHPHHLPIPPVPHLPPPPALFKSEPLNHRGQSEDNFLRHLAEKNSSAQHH
UniProt Q6IQ21: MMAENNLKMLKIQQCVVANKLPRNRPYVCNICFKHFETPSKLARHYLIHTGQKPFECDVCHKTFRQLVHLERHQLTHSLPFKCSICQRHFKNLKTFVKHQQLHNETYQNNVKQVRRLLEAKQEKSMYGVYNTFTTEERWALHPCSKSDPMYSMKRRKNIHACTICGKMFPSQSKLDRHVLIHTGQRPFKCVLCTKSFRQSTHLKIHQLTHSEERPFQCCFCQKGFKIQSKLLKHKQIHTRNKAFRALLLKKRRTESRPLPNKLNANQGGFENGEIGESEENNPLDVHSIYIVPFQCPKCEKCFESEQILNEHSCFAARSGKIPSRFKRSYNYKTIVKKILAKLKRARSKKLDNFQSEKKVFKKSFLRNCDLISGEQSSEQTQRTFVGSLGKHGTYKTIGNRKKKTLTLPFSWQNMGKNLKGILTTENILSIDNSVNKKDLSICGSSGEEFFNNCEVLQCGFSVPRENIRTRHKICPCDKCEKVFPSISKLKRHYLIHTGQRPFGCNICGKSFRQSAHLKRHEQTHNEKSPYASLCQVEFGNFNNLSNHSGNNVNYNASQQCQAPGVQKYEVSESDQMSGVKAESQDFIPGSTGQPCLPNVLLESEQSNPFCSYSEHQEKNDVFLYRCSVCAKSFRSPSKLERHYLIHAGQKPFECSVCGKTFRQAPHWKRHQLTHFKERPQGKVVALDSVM
UniProt Q86VK4: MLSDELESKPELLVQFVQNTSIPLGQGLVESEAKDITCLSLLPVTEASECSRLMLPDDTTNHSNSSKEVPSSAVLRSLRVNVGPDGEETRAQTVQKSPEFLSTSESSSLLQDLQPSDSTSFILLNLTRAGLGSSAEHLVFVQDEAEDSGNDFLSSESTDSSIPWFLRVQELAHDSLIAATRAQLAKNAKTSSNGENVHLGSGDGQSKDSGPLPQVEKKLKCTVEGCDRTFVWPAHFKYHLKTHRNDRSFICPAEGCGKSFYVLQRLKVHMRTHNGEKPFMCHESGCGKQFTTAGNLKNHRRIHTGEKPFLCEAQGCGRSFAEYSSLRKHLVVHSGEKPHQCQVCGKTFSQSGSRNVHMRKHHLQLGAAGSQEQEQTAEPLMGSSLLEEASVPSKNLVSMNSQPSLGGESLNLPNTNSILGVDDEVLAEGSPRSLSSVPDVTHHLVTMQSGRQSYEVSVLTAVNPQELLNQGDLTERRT
UniProt Q96E35: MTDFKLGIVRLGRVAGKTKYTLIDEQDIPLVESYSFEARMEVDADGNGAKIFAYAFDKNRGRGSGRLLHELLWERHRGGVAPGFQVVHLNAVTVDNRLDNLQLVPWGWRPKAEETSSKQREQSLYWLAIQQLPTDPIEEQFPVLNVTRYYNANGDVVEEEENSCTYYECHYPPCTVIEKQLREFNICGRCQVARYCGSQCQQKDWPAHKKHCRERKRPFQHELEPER
UniProt P59817: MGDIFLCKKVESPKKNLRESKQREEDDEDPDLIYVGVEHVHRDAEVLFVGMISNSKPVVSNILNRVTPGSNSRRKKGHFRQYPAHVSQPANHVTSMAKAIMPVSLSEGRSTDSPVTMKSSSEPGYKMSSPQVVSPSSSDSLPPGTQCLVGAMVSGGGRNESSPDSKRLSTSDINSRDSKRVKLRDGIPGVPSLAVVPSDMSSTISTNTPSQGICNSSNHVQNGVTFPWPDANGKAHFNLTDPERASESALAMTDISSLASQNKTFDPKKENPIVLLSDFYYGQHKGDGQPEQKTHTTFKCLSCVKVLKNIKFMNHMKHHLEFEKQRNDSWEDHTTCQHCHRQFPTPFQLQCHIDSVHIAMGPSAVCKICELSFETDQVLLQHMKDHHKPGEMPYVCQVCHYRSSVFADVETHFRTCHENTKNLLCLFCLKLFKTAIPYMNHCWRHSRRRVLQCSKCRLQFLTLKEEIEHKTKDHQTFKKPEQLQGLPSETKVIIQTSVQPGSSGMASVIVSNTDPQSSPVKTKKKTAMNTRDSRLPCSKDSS
UniProt Q15696: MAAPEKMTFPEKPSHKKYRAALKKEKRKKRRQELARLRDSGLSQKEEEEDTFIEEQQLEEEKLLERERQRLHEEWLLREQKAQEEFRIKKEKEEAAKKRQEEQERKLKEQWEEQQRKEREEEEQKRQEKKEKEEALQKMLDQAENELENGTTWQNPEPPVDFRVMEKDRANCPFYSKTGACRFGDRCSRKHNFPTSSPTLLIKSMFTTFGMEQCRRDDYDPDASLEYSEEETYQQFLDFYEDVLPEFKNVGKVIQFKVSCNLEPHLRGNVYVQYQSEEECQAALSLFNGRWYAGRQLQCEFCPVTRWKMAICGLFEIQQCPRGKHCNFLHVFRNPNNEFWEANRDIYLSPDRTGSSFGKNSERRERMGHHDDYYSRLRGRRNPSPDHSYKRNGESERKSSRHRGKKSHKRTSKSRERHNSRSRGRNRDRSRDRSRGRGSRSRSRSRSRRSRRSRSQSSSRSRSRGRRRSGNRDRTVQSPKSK
UniProt Q16670: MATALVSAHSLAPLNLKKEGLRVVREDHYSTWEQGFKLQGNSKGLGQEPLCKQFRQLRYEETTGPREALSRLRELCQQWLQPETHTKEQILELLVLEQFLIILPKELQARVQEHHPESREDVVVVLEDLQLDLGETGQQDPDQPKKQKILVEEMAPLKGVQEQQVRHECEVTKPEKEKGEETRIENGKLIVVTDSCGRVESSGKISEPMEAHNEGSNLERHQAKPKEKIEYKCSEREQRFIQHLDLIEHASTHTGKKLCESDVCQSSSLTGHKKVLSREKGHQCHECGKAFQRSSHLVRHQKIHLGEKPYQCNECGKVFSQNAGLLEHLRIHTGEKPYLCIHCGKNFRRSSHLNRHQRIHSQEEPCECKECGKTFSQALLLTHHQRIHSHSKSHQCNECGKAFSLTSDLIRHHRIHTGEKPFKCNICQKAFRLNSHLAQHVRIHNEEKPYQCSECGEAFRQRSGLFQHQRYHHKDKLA
UniProt Q8N720: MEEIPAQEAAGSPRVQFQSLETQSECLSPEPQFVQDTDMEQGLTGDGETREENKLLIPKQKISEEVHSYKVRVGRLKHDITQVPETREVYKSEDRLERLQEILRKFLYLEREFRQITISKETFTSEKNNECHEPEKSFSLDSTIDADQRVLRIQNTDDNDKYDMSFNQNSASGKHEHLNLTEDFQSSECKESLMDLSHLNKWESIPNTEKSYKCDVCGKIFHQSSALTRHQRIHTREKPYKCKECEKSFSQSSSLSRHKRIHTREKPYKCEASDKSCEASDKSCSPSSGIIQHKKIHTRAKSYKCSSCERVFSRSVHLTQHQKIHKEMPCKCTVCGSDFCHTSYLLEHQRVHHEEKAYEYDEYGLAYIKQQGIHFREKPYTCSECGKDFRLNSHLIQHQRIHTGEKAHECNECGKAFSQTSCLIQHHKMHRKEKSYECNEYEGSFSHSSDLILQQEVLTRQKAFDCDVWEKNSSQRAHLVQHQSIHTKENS
UniProt Q0VGE8: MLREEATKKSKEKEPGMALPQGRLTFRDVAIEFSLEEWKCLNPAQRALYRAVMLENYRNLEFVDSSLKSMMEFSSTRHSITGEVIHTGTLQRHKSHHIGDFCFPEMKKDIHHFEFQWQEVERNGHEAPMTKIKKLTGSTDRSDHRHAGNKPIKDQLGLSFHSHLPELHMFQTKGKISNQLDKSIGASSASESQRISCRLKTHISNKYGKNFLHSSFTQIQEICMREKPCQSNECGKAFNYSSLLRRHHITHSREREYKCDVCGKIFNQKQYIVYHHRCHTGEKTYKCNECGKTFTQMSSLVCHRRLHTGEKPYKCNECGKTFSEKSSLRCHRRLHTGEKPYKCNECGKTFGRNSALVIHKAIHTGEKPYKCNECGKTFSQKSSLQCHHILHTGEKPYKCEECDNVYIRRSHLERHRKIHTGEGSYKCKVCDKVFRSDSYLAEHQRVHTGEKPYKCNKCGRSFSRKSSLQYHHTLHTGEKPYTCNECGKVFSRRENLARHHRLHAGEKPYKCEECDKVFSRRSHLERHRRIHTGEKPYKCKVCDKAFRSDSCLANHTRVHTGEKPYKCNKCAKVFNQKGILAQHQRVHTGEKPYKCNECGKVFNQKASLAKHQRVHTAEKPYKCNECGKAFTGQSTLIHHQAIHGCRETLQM

Each target was assayed with C[C@@H](Oc1cc(-c2cnn(C3CCNCC3)c2)cnc1N)c1c(Cl)ccc(F)c1Cl [crizotinib] (assay: log2 fold change, soluble protein after heating vs DMSO (PISA); higher = thermal stabilisation; K562 lysate, 10 uM; active = over 0.2 and 3.5 SD of the protein, either way, in both replicates (recomputed)).
Procedure, shortened: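 Log-two fold change in thermal stability relative to solvent controls is reported from duplicates. For each sample, crude K562 extract from dounce-homogenised pellets in PBS pH 7.4 with 1 mM MgCl2, at 1 mg/mL protein, was treated with 10 μM compound for 30 min. Aliquots heated for 3 min across 48°C-58°C were pooled, brought to 0.5% NP-40 at 4°C and cleared at 21,000xg for 90 min. The supernatant was quantified by TMTpro 16plex LC-MS/MS with channel sums equalised.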

log2 fold change, inactive:
ZNF16 (UniProt P17020) 0.014
ZNF281 (UniProt Q9Y2X9) 0.003
ZNF652 (UniProt Q9Y2D9) -0.007
ZNF770 (UniProt Q6IQ21) -0.197
ZNF410 isoform 5 (UniProt Q86VK4) 0.051
ZNF808 (UniProt Q8N4W9) -0.149
ZMYND19 (UniProt Q96E35) 0.049
ZNF280A (UniProt P59817) -0.108
ZNF280A, A0A0G2JN84 -0.049
ZRSR2 (UniProt Q15696) -0.051
ZNF76 (UniProt P36508) 0.071
ZSCAN26 (UniProt Q16670) -0.025
ZNF646 (UniProt O15015) 0.007
ZNF655 isoform 3 (UniProt Q8N720) -0.285
ZNF184 (UniProt Q99676) 0.025
ZNF816 (UniProt Q0VGE8) 0.253

3 consecutive entries already listed:
log2 fold change, inactive:
ZNF281 (UniProt Q9Y2X9) 0.003
ZNF652 (UniProt Q9Y2D9) -0.007
ZNF770 (UniProt Q6IQ21) -0.197
